Reference: publication PMC5620058, “IL-12p35 induces expansion of IL-10 and IL-35-expressing regulatory B cells and ameliorates autoimmune disease” (Nature Communications, 2017)
Results are given in words; binding and its absence hold for the method and conditions named. Some binding calls cover weakened binding; strength is not graded here. For some of these results: Sequences can lack the tags named with a protein. Values belong to the binder of their own block, whether it stands above or below them.

Experiments:
[1] = target: T1, Ebi3 (endogenous, mouse spleen B cells) (mouse (endogenous in C57BL/6 spleen B cells)), O35228; assay: western blot of whole cell lysate; CD19+ B cells from the spleen of C57BL/6 mice 4 days after LPS injection (15 µg/mouse); whole cell lysate on SDS-PAGE, western blot; conditions: remark: other sources report otherwise
T1 chain: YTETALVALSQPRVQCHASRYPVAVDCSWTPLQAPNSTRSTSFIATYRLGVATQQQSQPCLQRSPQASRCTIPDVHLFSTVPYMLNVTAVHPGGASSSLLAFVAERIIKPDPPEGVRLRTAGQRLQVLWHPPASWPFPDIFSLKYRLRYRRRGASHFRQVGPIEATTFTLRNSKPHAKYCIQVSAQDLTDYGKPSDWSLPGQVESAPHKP

[2] = target: IL-12p35 (endogenous, mouse spleen cells) (mouse (endogenous in C57BL/6 spleen cells)) (UniProt P43431); assay: western blot of whole cell lysate; spleen cell lysate of EAU mice (IRBP in CFA; untreated or treated with p35), 21 days post-immunization; western blot, non-reduced condition
[3] = target: IL-12p35 (endogenous, mouse spleen cells) (mouse (endogenous in C57BL/6 spleen cells)) (UniProt P43431); assay: western blot of whole cell lysate; CD19+ B cells from the spleen of C57BL/6 mice 4 days after LPS injection (15 µg/mouse); whole cell lysate on SDS-PAGE, western blot
[4] = target: mouse recombinant IL-12p35 (rIL-12p35; HBM-p35-Flag-His) (mouse) (UniProt P43431); assay: AUC; sedimentation equilibrium, native conditions, reducing condition; peak fraction of Superose-6 further purified by Centricon filtration; both purified

binding [1]: binds
B1: Ebi3 (endogenous, mouse spleen B cells), O35228 19-228 (protein)
chain: T1 chain

binding [3]: binds
B2: IL-12p35 (endogenous, mouse spleen cells) (protein, UniProt P43431 23-215)
chain: RVIPVSGPARCLSQSRNLLKTTDDMVKTAREKLKHYSCTAEDIDHEDITRDQTSTLKTCLPLELHKNESCLATRETSSTTRGSCLPPQKTSLMMTLCLGSIYEDLKMYQTEFQAINAALQNHNHQQIILDKGMLVAIDELMQSLNHNGETLRQKPPVGEADPYRVKMKLCILLHAFSTRVVTINRVMGYLSSA
binding [2]: no binding (condition: spleen lysate of EAU mice)

B3: mouse recombinant IL-12p35 (rIL-12p35; HBM-p35-Flag-His) (natural protein, UniProt P43431 23-215, looked up)
chain: B2 chain
notes: IL-12p35 (Il12a), mouse; cDNA amplified with the printed primers and cloned behind the honeybee melittin (HBM) secretion signal of pMIB; The same construct was obtained as a monomer (~27 kDa, FPLC fractions 29-30) and as a p35−p35 homodimer (~56-57 kDa, fractions 20-21); also called p35−p35; source: purified (Ni-NTA, Centricon filtration, Sephacryl S-200 and Superose-6 FPLC)
binding [4]: no binding (condition: reducing condition)
